Results published in article PMC10415146.
These are yes or no findings as the source states them, for the method shown. Some entries that bind do so weakly or less than the wild type.

B1: wild-type Cas1 (enzyme, UniProt Q46896 1-305)
chain: MTWLPLNPIPLKDRVSMIFLQYGQIDVIDGAFVLIDKTGIRTHIPVGSVACIMLEPGTRVSHAAVRLAAQVGTLLVWVGEAGVRVYASGQPGGARSDKLLYQAKLALDEDLRLKVVRKMFELRFGEPAPARRSVEQLRGIEGSRVRATYALLAKQYGVTWNGRRYDPKDWEKGDTINQCISAATSCLYGVTEAAILAAGYAPAIGFVHTGKPLSFVYDIADIIKFDTVVPKAFEIARRNPGEPDREVRLACRDIFRSSKTLAKLIPLIEDVLAAGEIQPPAPPEDAQPVAIPLPVSLGDAGHRSS
B2: dead Cas1 (Cas1^D221A) (enzyme, UniProt Q46896 1-305)
chain: MTWLPLNPIPLKDRVSMIFLQYGQIDVIDGAFVLIDKTGIRTHIPVGSVACIMLEPGTRVSHAAVRLAAQVGTLLVWVGEAGVRVYASGQPGGARSDKLLYQAKLALDEDLRLKVVRKMFELRFGEPAPARRSVEQLRGIEGSRVRATYALLAKQYGVTWNGRRYDPKDWEKGDTINQCISAATSCLYGVTEAAILAAGYAPAIGFVHTGKPLSFVYDIAAIIKFDTVVPKAFEIARRNPGEPDREVRLACRDIFRSSKTLAKLIPLIEDVLAAGEIQPPAPPEDAQPVAIPLPVSLGDAGHRSS
B3: Cas1-E269G (enzyme, UniProt Q46896 1-305)
chain: MTWLPLNPIPLKDRVSMIFLQYGQIDVIDGAFVLIDKTGIRTHIPVGSVACIMLEPGTRVSHAAVRLAAQVGTLLVWVGEAGVRVYASGQPGGARSDKLLYQAKLALDEDLRLKVVRKMFELRFGEPAPARRSVEQLRGIEGSRVRATYALLAKQYGVTWNGRRYDPKDWEKGDTINQCISAATSCLYGVTEAAILAAGYAPAIGFVHTGKPLSFVYDIADIIKFDTVVPKAFEIARRNPGEPDREVRLACRDIFRSSKTLAKLIPLIGDVLAAGEIQPPAPPEDAQPVAIPLPVSLGDAGHRSS
B4: Cas1-V76L (enzyme, UniProt Q46896 1-305)
chain: MTWLPLNPIPLKDRVSMIFLQYGQIDVIDGAFVLIDKTGIRTHIPVGSVACIMLEPGTRVSHAAVRLAAQVGTLLLWVGEAGVRVYASGQPGGARSDKLLYQAKLALDEDLRLKVVRKMFELRFGEPAPARRSVEQLRGIEGSRVRATYALLAKQYGVTWNGRRYDPKDWEKGDTINQCISAATSCLYGVTEAAILAAGYAPAIGFVHTGKPLSFVYDIADIIKFDTVVPKAFEIARRNPGEPDREVRLACRDIFRSSKTLAKLIPLIEDVLAAGEIQPPAPPEDAQPVAIPLPVSLGDAGHRSS
B5: Cas1-S1,S2 (Cas1 with E269G and V76L) (enzyme, UniProt Q46896 1-305)
chain: MTWLPLNPIPLKDRVSMIFLQYGQIDVIDGAFVLIDKTGIRTHIPVGSVACIMLEPGTRVSHAAVRLAAQVGTLLLWVGEAGVRVYASGQPGGARSDKLLYQAKLALDEDLRLKVVRKMFELRFGEPAPARRSVEQLRGIEGSRVRATYALLAKQYGVTWNGRRYDPKDWEKGDTINQCISAATSCLYGVTEAAILAAGYAPAIGFVHTGKPLSFVYDIADIIKFDTVVPKAFEIARRNPGEPDREVRLACRDIFRSSKTLAKLIPLIGDVLAAGEIQPPAPPEDAQPVAIPLPVSLGDAGHRSS

target: T1, Cas2 (Escherichia coli) (UniProt P45956); assay: co-purification of a co-expressed complex; Cas1 variant and Cas2-His co-expressed from pETDuet in E. coli BL21-DE3 (0.5 mM IPTG, 25°C, 22 h); the complex purified as described in ref. 30
T1 sequence: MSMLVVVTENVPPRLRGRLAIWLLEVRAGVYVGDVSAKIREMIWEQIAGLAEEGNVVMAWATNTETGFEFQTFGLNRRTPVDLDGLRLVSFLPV

binding, binds:
B1, B2, B3, B4, B5
